The text below walks through data of publication doi:10.1101/431791.

Results are given in words; binding and its absence hold for the method and conditions named. A result given as binding can be weak or reduced; the word gives no strength. Tags and fused reporters may be left off the sequences shown.

The target of experiment [1] is T1, AUR1, yeast two-hybrid fusion (A. thaliana) (UniProt Q9M077).
T1 sequence: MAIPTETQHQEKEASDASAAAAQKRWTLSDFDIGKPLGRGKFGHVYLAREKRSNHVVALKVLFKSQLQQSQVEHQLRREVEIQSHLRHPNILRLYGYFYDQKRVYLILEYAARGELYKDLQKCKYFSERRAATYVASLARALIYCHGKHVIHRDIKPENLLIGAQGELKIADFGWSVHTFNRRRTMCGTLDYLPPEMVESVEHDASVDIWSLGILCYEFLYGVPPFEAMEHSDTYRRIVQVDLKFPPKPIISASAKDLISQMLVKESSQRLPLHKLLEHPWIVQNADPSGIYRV
Nature of the experiment: two-hybrid.

The target in experiment [2] is TPXL2, yeast two-hybrid fusion (A. thaliana). Put plainly: two-hybrid.

In the case of “TPXL3, yeast two-hybrid fusion (A. thaliana)”, in experiment [1], the binding entry is listed as “no binding”.

“TPXL2, yeast two-hybrid fusion (A. thaliana)”: in experiment [1], the binding result is on record as “binds”.

B1: AUR1, yeast two-hybrid fusion (enzyme, UniProt Q9M077 1-294)
chain: MAIPTETQHQEKEASDASAAAAQKRWTLSDFDIGKPLGRGKFGHVYLAREKRSNHVVALKVLFKSQLQQSQVEHQLRREVEIQSHLRHPNILRLYGYFYDQKRVYLILEYAARGELYKDLQKCKYFSERRAATYVASLARALIYCHGKHVIHRDIKPENLLIGAQGELKIADFGWSVHTFNRRRTMCGTLDYLPPEMVESVEHDASVDIWSLGILCYEFLYGVPPFEAMEHSDTYRRIVQVDLKFPPKPIISASAKDLISQMLVKESSQRLPLHKLLEHPWIVQNADPSGIYRV
B1: in experiment [2], the binding entry is recorded as “binds”.
